{"source": "PubChem BioAssay AID1347423", "about": "(Functional Genomics Laboratory (NCATS/FGL), 2020)", "note": "Among all 52,000 sequences or so, about 210 (0.4%) were called active.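 How the source made its calls: active means gene whose silencing raises cell survival under the drug, median off-target-corrected z-score across its silencing RNAs 2 or more; inactive means the rest.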 This is one part of the list.", "data": [{"assay": "Resistance to Poly (ADP-Ribose) Polymerase inhibitor: Gene Identification via Genome-wide siRNA Screen", "details": "mouse BRCA2 R2336H ES cells, olaparib, CellTiter-Glo viability; active compounds read high", "how_it_was_run": "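Mouse BRCA2 R2336H ES cells were reverse-transfected with siRNA (20 nM final), treated at 48 h with 500 nM olaparib, and read by CellTiter-Glo after 72 h. Scores: MAD-based z per siRNA, median per gene, seed off-target correction.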", "values": [{"sequence": "GCAAAUGUUGCCCAUCGUGTT against Ppp2r1b", "z-score": "inactive: -0.878"}, {"sequence": "GGAGAGCGAAGAAAAAAUGTT against Birc2", "z-score": "inactive: 0.0315"}, {"sequence": "CCAAGUGUGAUCUCCAUCATT against LOC331392", "z-score": "inactive: -1.49"}, {"sequence": "GGCCAAACUAAUGUUUUUCTT against 1700058C01Rik", "z-score": "inactive: 0.283"}, {"sequence": "GGAAAGUAACUAAAGGCAATT against Arl10c", "z-score": "inactive: -0.298"}, {"sequence": "CCAGGACAAUAACUCUGAGTT against Aatk", "z-score": "inactive: 0.365"}, {"sequence": "GGAGCUAGGAAGGUGGUAGTT against Mutyh", "z-score": "inactive: 0.077"}, {"sequence": "GGAAGAGGCAGAUUUAUGGTT against 2310046G15Rik", "z-score": "inactive: 2.47"}, {"sequence": "GCGCACAACAGACUUCUAUTT against Epm2a", "z-score": "inactive: 0.346"}, {"sequence": "CCUAAAGAAGGUCUAUGCCTT against Tegt", "z-score": "inactive: 0.524"}, {"sequence": "GCAACUAGCGUGUGUUCCUTT against Arpc1a", "z-score": "inactive: 0.156"}, {"sequence": "GGAUGGAAAUAAAUUCACATT against Fabp2", "z-score": "inactive: -0.811"}, {"sequence": "GCCCGGAGAAUAUUAACUATT against AI839562", "z-score": "inactive: 0.557"}, {"sequence": "GGCCAUAUGUCAAGAAGUUTT against Svp2", "z-score": "inactive: -1.19"}, {"sequence": "CCUUAUAGCUAUGACUUUCTT against Tas2r136", "z-score": "inactive: -0.137"}, {"sequence": "GGAACUGAUGAGAACACUATT against Gbp1", "z-score": "inactive: -0.441"}, {"sequence": "GGCCGUGAUAGUCAGUGACTT against LOC433365", "z-score": "inactive: 0.0165"}, {"sequence": "GGAGACAAUAAUUGAAGAUTT against Gabpb2", "z-score": "inactive: 0.496"}, {"sequence": "GCAGAUCGGUUCUCAGAUGTT against 4930538K18Rik", "z-score": "inactive: 1.12"}, {"sequence": "GGCUGACCUCAUUAAUAACTT against Hspcb", "z-score": "inactive: 0.724"}, {"sequence": "GCCACUAGUGAAGACAUCCTT against 5930437A14Rik", "z-score": "inactive: 0.765"}, {"sequence": "GGAGAUGGAAAAGAACAGATT against Dtnb", "z-score": "inactive: 0.109"}, {"sequence": "GGUCUAUGGCUUAAACUUUTT against Evl", "z-score": "inactive: -0.257"}, {"sequence": "CCACACGAGUAUUUUAGUATT against BC014685", "z-score": "inactive: 0.0246"}, {"sequence": "GCAUGCUAGGGAACCUGCUTT against Olfr1318", "z-score": "inactive: -0.313"}, {"sequence": "GGUGCUGGAGAACAUUAAATT against Panx1", "z-score": "inactive: -0.231"}, {"sequence": "GCCUAUCAAUGUGUAUCUUTT against Tcf21", "z-score": "inactive: 1.1"}, {"sequence": "GGACAGGUACUUUUCCCUGTT against Gnpda2", "z-score": "inactive: 0.454"}, {"sequence": "GGUGCUCACAGUGAAGAAGTT against Ppm1h", "z-score": "inactive: -0.176"}, {"sequence": "GGAAGUGGAUGAGGAUUGATT against Purb", "z-score": "inactive: -0.671"}, {"sequence": "GGCUUACCUUGGAUUUUAUTT against Rab36", "z-score": "inactive: 0.394"}, {"sequence": "CCCUGAGUGCCGUAUGAUUTT against Ddb1", "z-score": "inactive: -1.92"}, {"sequence": "GGUGAUGGAUGUGGACACATT against Dcbld2", "z-score": "inactive: -0.607"}, {"sequence": "GGAGAUUGUGGAAAUGCUUTT against Skiv2l", "z-score": "inactive: 1.28"}, {"sequence": "CCAUGUCCUAACCUGAAACTT against Zic5", "z-score": "inactive: 0.454"}, {"sequence": "GGUGUAUAGUUUUACACUCTT against Psen2", "z-score": "inactive: 2.03"}, {"sequence": "CGGAGCCAGUUGGUAAAGATT against Vps39", "z-score": "inactive: -1.25"}, {"sequence": "GCCAAACGUGGGUUUGAUATT against Ccna1", "z-score": "inactive: -0.552"}, {"sequence": "CCUAAAUUCUUCACCUUCGTT against A830007P12Rik", "z-score": "inactive: -0.204"}, {"sequence": "GGAUGAAAAGUUAAAGCAUTT against Ppp1r7", "z-score": "inactive: -0.691"}, {"sequence": "GCUGUACAAUUUUAGGAGGTT against Slc17a2", "z-score": "inactive: 0.0998"}, {"sequence": "GGGCCUGCCAGUGUGAUAUTT against Gpha2", "z-score": "inactive: -0.958"}, {"sequence": "GGUGGUGGUACUGGUCAAUTT against D11Lgp2e", "z-score": "inactive: -0.181"}, {"sequence": "CCUGGUGACAUCACUAAAATT against P4ha1", "z-score": "inactive: 1.15"}, {"sequence": "CCUUGUCCCUUUACCUCAATT against 6330514A18Rik", "z-score": "inactive: -1.92"}, {"sequence": "GCUACUUCAGCUAUUGAGGTT against Cd200r1", "z-score": "inactive: 1.27"}, {"sequence": "GGCAUGGGAAUUAUUCCAATT against Kif5b", "z-score": "inactive: 0.629"}, {"sequence": "GGAAAUACAGAACACAAGCTT against 9430067K14Rik", "z-score": "inactive: 0.496"}, {"sequence": "GGAUUAUCAGAAGUGUGUCTT against Mrps35", "z-score": "inactive: 0.898"}, {"sequence": "GGAUGAACAACUCUAGGCCTT against Mafk", "z-score": "inactive: -0.117"}, {"sequence": "GGGAAACAGAUGAAAGAGUTT against 2310035C23Rik", "z-score": "inactive: -1.44"}, {"sequence": "GCAAUUCAUCAGGAGCAGGTT against Rab8b", "z-score": "inactive: -0.27"}, {"sequence": "GGAUGACCACACUAACCUCTT against Fars1", "z-score": "inactive: -1.89"}, {"sequence": "CGAGGCUAUUGACUUCAUATT against Dusp1", "z-score": "inactive: -0.184"}, {"sequence": "CGUCUGUUUUUGUGAAUUATT against LOC432736", "z-score": "inactive: -0.324"}, {"sequence": "GGAUUCAAGCAUCGGAUUGTT against Adamts6", "z-score": "inactive: -2.09"}, {"sequence": "GGAACAGCAGCUUCCCUAATT against 4930555G01Rik", "z-score": "inactive: -1.77"}, {"sequence": "GAUCUCUGAAUUACGGAGUTT against Krtap13", "z-score": "inactive: 1.59"}, {"sequence": "CCCACUACCGUCUUUCCUATT against F830014G06Rik", "z-score": "inactive: -1.46"}, {"sequence": "GGAGACCUUGAAGAAGAUUTT against Vav2", "z-score": "inactive: -0.626"}, {"sequence": "GCUAUUCUGUAAGGUCCCGTT against 1700020F09Rik", "z-score": "inactive: 1.99"}, {"sequence": "GCUGAGCAUCCAGUGUAGUTT against Gm433", "z-score": "inactive: 0.0421"}, {"sequence": "GCCGUACCGGAUUUUUUUCTT against Smyd3", "z-score": "inactive: 0.405"}, {"sequence": "GGUGAAAACGUGGUUCCAGTT against Bsx", "z-score": "inactive: -1.19"}, {"sequence": "GGGUACUGUUUUGUUAACUTT against Rbm18", "z-score": "inactive: -0.248"}, {"sequence": "GGCCAGAGUAUCGAUGUUCTT against Slc25a14", "z-score": "inactive: -0.747"}, {"sequence": "GGAUGUUAAAGCAAGUGUATT against Olfr1153", "z-score": "inactive: -1.18"}, {"sequence": "CGACCAAGAUGUAAUACAUTT against Nudt8", "z-score": "inactive: 0.00898"}, {"sequence": "GGACAGUUCCAUGAAUACCTT against Rab5b", "z-score": "inactive: -0.505"}, {"sequence": "GGUGAAACGGGAUGUUAACTT against Ppargc1b", "z-score": "inactive: 0.429"}, {"sequence": "GGACAUCAUGUGCAUGGAATT against Fbxo38", "z-score": "inactive: -0.54"}, {"sequence": "GGUAUACCAGAGGAAGAAGTT against Slc39a11", "z-score": "inactive: 0.229"}, {"sequence": "GCAAUAUGGCCUCAGUCUCTT against Rnf33", "z-score": "inactive: -0.153"}, {"sequence": "GCCAGUACUCUGCUUGUGATT against 4933440H19Rik", "z-score": "inactive: -2.27"}, {"sequence": "GGAUUCAGCAGACUUUGAATT against C730027P07Rik", "z-score": "inactive: -1.58"}, {"sequence": "GGUUCAGAAGUUUGGGAGATT against Mrpl48", "z-score": "inactive: -1.02"}, {"sequence": "GGAUGAAGAACUUCUCUGGTT against 2010002A20Rik", "z-score": "inactive: -0.217"}, {"sequence": "GGAGUUUACGGCUAUUGACTT against Centa2", "z-score": "inactive: -1.46"}, {"sequence": "GCUGUGUGUUGUUCAAUUGTT against Pdcd6ip", "z-score": "inactive: -0.0293"}, {"sequence": "GGGCAUGCUGCUUAUUGUGTT against Slc5a4b", "z-score": "inactive: 1.65"}, {"sequence": "CCCUGAGAAGGAUGCGAAATT against Mgat4b", "z-score": "inactive: -0.109"}, {"sequence": "GGCAAAGAGUUUUGAUCAGTT against Calu", "z-score": "inactive: 0.133"}, {"sequence": "GGUACUCCAGAAUAGAAGCTT against Gdf8", "z-score": "inactive: 0.715"}, {"sequence": "GGAGAAGAGCAGAAUAUGCTT against B930060C03", "z-score": "inactive: 1.01"}, {"sequence": "GGAGACAAUGGACAAGAAGTT against Dnalc4", "z-score": "inactive: 1.01"}, {"sequence": "GUUUUUCUGGGCAAUUUUATT against Olfr739", "z-score": "inactive: 1.5"}, {"sequence": "GGGUUUAUGUUGCCGACUCTT against Set7", "z-score": "inactive: -1.02"}, {"sequence": "GAGACAUCCUCUUCACCAUTT against Olfr495", "z-score": "inactive: -2.11"}, {"sequence": "GCACAACAUCACGGUGAACTT against Adcy5", "z-score": "inactive: -0.642"}, {"sequence": "GGUGCAACAACACCACAUCTT against Mmp1a", "z-score": "inactive: -0.511"}, {"sequence": "GGAUCACUGGGAAAACGGUTT against Nfatc2", "z-score": "inactive: 0.459"}, {"sequence": "GGAUCUUUCAAAGAGAGUUTT against Egfl8", "z-score": "inactive: 0.0584"}, {"sequence": "CGACAUGGAAUGUUCACACTT against Metap2", "z-score": "inactive: 1.98"}, {"sequence": "GGAGCUGAAUGAAAACCAGTT against 2810468K05Rik", "z-score": "inactive: 0.16"}, {"sequence": "GGAGAAGCUAAGAAACGAGTT against Acyp2", "z-score": "inactive: -0.523"}, {"sequence": "GGGAUUUGGUUUCGUAACUTT against A2bp1", "z-score": "inactive: 0.991"}, {"sequence": "GGUGUCUUUGCUCAGCUCATT against Lrfn4", "z-score": "inactive: -0.857"}, {"sequence": "GGCAUAGCACUUUUGUACCTT against Lancl2", "z-score": "inactive: 0.93"}, {"sequence": "CGAUACAUAUCCAUUGUAUTT against A030013N09Rik", "z-score": "inactive: -0.405"}, {"sequence": "CCGCCUUUCUUACAACCAATT against Rpl41", "z-score": "inactive: -0.65"}, {"sequence": "GCAGAUAAUCUAGCAAAGATT against Agps", "z-score": "inactive: 0.0454"}, {"sequence": "GCACAGGGAAUGUUGUAGATT against Polr3d", "z-score": "inactive: -0.56"}, {"sequence": "UAGUCAUUGGGAUUCCUUCTT against Olfr112", "z-score": "inactive: 0.647"}, {"sequence": "GGGAAUGCUUAUGUAGGCATT against Aldh3b1", "z-score": "inactive: -1.27"}]}]}
